In patent US7528244:
No constants are given. Whether binding was seen depends on the method and setting. Some entries that bind do so weakly or less than the wild type.

Biological target: T1, Fas, P25445
T1 chain: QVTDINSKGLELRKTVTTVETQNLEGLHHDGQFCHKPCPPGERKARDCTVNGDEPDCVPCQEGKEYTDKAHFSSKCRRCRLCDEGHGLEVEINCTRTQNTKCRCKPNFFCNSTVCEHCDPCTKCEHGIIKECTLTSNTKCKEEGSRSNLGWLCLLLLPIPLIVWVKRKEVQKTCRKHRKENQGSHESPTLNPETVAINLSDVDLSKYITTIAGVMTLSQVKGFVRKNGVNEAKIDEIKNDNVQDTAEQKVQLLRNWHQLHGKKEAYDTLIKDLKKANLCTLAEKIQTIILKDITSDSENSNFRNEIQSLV
Assay: anti-Fas immunoprecipitation from 293 cells expressing Fas, FADD and Casper; three-protein complex
Conditions: remark: other sources report otherwise

binding: binds
B1: FADD, Q13158 1-208 (protein, UniProt Q13158 1-208, looked up)
chain: MDPFLVLLHSVSSSLSSSELTELKFLCLGRVGKRKLERVQSGLDLFSMLLEQNDLEPGHTELLRELLASLRRHDLLRRVDDFEAGAAAGAAPGEEDLCAAFNVICDNVGKDWRRLARQLKVSDTKIDSIEDRYPRNLTERVRESLRIWKNTEKENATVAHLVGALRSCQMNLVADLVQEVQQARDLQNRSGAMSPMSWNSDASTSEAS
